Reference: the supplement of paper PMC7646827
Counter-ions that a name gives are not always drawn. Many values rest on one well or one pass, so single values are uncertain.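 All cells are established human bladder cancer lines, one derived from a patient-derived xenograft. A luminescent ATP assay measured viability as percent inhibition relative to vehicle across seven dilutions. The paper rates scores above 59 very active, 30–59 active, 21–29 semi-active, 9–20 low active, below 9 inactive.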

Tests used:
Test in all cases: drug sensitivity score DSS3 (score 0-100); higher = more sensitive; extreme values may be limits of the assay
Settings in all cases: culture: 3D, ultra-low attachment; treatment time: 5 days
UM-UC-5 = test system: UM-UC-5
UM-UC-17 = test system: UM-UC-17
SCaBER = test system: SCaBER
UM-UC-6 = test system: UM-UC-6
UM-UC-15 = test system: UM-UC-15
J82 = test system: J82
5637 = test system: 5637
SW780 = test system: SW780
UM-UC-18 = test system: UM-UC-18
T-24 = test system: T-24
UM-UC-9 = test system: UM-UC-9
BC8149 = test system: BC8149
UM-UC-1 = test system: UM-UC-1
UM-UC-14 = test system: UM-UC-14
TCCSUP = test system: TCCSUP
UM-UC-12 = test system: UM-UC-12

Row | SMILES | drug sensitivity score DSS3 (UM-UC-5) | drug sensitivity score DSS3 (UM-UC-17) | drug sensitivity score DSS3 (SCaBER) | drug sensitivity score DSS3 (UM-UC-6) | drug sensitivity score DSS3 (UM-UC-15) | drug sensitivity score DSS3 (J82) | drug sensitivity score DSS3 5637 | drug sensitivity score DSS3 (SW780) | drug sensitivity score DSS3 (UM-UC-18) | drug sensitivity score DSS3 (T-24) | drug sensitivity score DSS3 (UM-UC-9) | drug sensitivity score DSS3 (BC8149) | drug sensitivity score DSS3 (UM-UC-1) | drug sensitivity score DSS3 (UM-UC-14) | drug sensitivity score DSS3 (TCCSUP) | drug sensitivity score DSS3 (UM-UC-12)
1 | Cc1nc(Nc2ncc(C(=O)Nc3c(C)cccc3Cl)s2)cc(N2CCN(CCO)CC2)n1 [Dasatinib] (max dose 10000 nM) | 0 | 0 | 27.8 | 0.425 | 0 | 4.72 | 1.73 | 0.575 | 0.734 | 15.5 | 0 | 0 | 0.0229 | 0 |  | 
2 | CCOc1ccccc1-n1c(C(C)N2CCN(C(=O)COc3ccc(Cl)cc3)CC2)nc2ccccc2c1=O (stereo not given) [Erastin] (max dose 10000 nM) | 3.82 | 0.476 | 0.621 | 0 | 0.71 | 0.0282 | 0.66 | 0 | 0 | 0 | 2.26 |  | 0.691 | 1.35 | 1.92 | 0.916
3 | CC(C)n1c(/C=C/C(O)CC(O)CC(=O)O)c(-c2ccc(F)cc2)c2ccccc21 (stereo not given) [Fluvastatin Sodium] (max dose 10000 nM) | 0.201 | 0 | 0 | 2.4 | 0 |  | 35.1 | 0 | 25.2 | 6.88 | 0 |  | 0.928 | 0 | 0 | 27.7
4 | COc1ccc(COc2ccc(Cc3cnc(N)nc3N)cc2OC)cc1 [GW2580] (max dose 10000 nM) | 0 | 0 | 1.72 | 0.384 | 0 | 0 | 3.84 | 0.00822 | 0 | 1.12 | 2.47 |  |  | 0 | 0 | 1.29
5 | COc1cc2ncnc(Nc3ccc(F)c(Cl)c3)c2cc1OCCCN1CCOCC1 [Gefitinib (ZD1839)] (max dose 10000 nM) | 0 |  | 26.6 | 14.2 | 13.7 |  | 14.8 | 0 |  |  | 8.15 |  |  |  | 9.54 | 33.7
6 | C[C@H](NC(=O)c1c(N)nn2cccnc12)c1cc2cccc(C#Cc3cnn(C)c3)c2c(=O)n1-c1ccccc1 [IPI-549] (max dose 10000 nM) | 0 | 0 | 0.302 | 0 | 0 | 0 | 0 | 0 | 0 |  | 0 | 0.5 | 0 | 0.125 | 0.372 | 0
7 | Cc1cc(Nc2ncnc3ccc(NC4=NC(C)(C)CO4)cc23)ccc1Oc1ccn2ncnc2c1 [Irbinitinib] (max dose 10000 nM) | 0 | 0 | 0 | 0.782 | 0 | 0 | 0 | 1.18 | 0.384 | 0 | 0.0611 | 0 | 0.0862 | 0 | 0.38 | 
8 | C=CC(=O)Nc1cc(Nc2nccc(-c3cn(C)c4ccccc34)n2)c(OC)cc1N(C)CCN(C)C [Osimertinib] (max dose 10000 nM) | 0 | 0.403 | 14.4 | 7.61 | 0 | 0 | 36.4 | 3.63 | 29.4 |  | 11.3 | 11.1 | 0.0934 | 0.701 | 7 | 4.52
9 | O=C(Nc1cccnc1)N1CCC(Cc2cccc(Oc3ccc(C(F)(F)F)cn3)c2)CC1 [PF-3845] (max dose 10000 nM) | 1.28 | 0 | 4.02 | 0.711 | 0 | 0 | 0.113 | 0.575 | 0.673 |  | 0.687 | 0 | 1.71 | 2.02 | 0 | 0.0307
10 | CO[C@H]1C[C@@H]2CC[C@@H](C)[C@@](O)(O2)C(=O)C(=O)N2CCCC[C@H]2C(=O)O[C@H]([C@H](C)C[C@@H]2CC[C@@H](O)[C@H](OC)C2)CC(=O)[C@H](C)/C=C(\C)[C@@H](O)[C@@H](OC)C(=O)[C@H](C)C[C@H](C)/C=C/C=C/C=C/1C [Rapamycin (Sirolimus)] (max dose 10000 nM) |  | 0 |  | 7.21 | 0 | 0 | 0 | 0 |  | 0 | 0 | 32.7 |  | 14.5 | 39.5 | 15.4
11 | O=C(Nc1cccc(Cl)c1)Nc1ncc(CCNc2ncnc3ccsc23)s1 [SNS-314 Mesylate] (max dose 10000 nM) | 0 | 4.19 |  | 16.9 | 0 | 3.27 | 51.6 | 0 | 6.65 | 0 | 0 | 24.7 | 14.3 | 23.2 | 62.9 | 21.5
12 | CNC(=O)c1cc(Oc2ccc(NC(=O)Nc3ccc(Cl)c(C(F)(F)F)c3)cc2)ccn1 [Sorafenib tosylate] (max dose 10000 nM) | 0 | 0 | 6.83 | 1.3 | 0.0974 | 0 | 7.53 | 0 | 15.8 | 0 | 0.208 | 0 | 0 | 1.12 | 6.89 | 
13 | COc1cc2c(cc1OC)[C@H]1C[C@@H](OC(=O)[C@@H](N)C(C)C)[C@H](CC(C)C)CN1CC2 [Valbenazine tosylate] (max dose 10000 nM) | 0 | 0 |  | 0 | 0 | 0.23 | 0 | 0.914 | 0 | 0 | 0 | 1.83 | 0 | 0 | 0 | 1.36
14 | CC(C)OC(=O)C1=CN(C(=O)c2ccc(F)c(F)c2)CC(C)(C)c2c1[nH]c1ccccc21 [XL335] (max dose 10000 nM) | 15.2 | 30.2 |  | 10.9 | 0.0905 | 0 | 22.4 | 27.4 |  | 12.2 |  | 20.1 | 19.8 |  | 35.1 | 21.9

Some of the entries so far, as comma-separated lines.
Row,SMILES,drug sensitivity score DSS3 (UM-UC-5),drug sensitivity score DSS3 (UM-UC-17),drug sensitivity score DSS3 (SCaBER),drug sensitivity score DSS3 (UM-UC-6),drug sensitivity score DSS3 (UM-UC-15),drug sensitivity score DSS3 (J82),drug sensitivity score DSS3 5637,drug sensitivity score DSS3 (SW780),drug sensitivity score DSS3 (UM-UC-18),drug sensitivity score DSS3 (T-24),drug sensitivity score DSS3 (UM-UC-9),drug sensitivity score DSS3 (BC8149),drug sensitivity score DSS3 (UM-UC-1),drug sensitivity score DSS3 (UM-UC-14),drug sensitivity score DSS3 (TCCSUP),drug sensitivity score DSS3 (UM-UC-12)
3,CC(C)n1c(/C=C/C(O)CC(O)CC(=O)O)c(-c2ccc(F)cc2)c2ccccc21 (stereo not given) [Fluvastatin Sodium] (max dose 10000 nM),0.201,0,0,2.4,0,,35.1,0,25.2,6.88,0,,0.928,0,0,27.7
4,COc1ccc(COc2ccc(Cc3cnc(N)nc3N)cc2OC)cc1 [GW2580] (max dose 10000 nM),0,0,1.72,0.384,0,0,3.84,0.00822,0,1.12,2.47,,,0,0,1.29
